Test results taken from PubChem BioAssay AID2685 (National Center for Advancing Translational Sciences (NCATS), 2010).
This is one part of the list. These are further read-outs of the screen, such as a control signal, another cell line or another target. No call is given for them. Most of these compounds were active or inconclusive in the main read-out, so they are no random draw. Potencies come from curve fits of mixed quality, noted in brackets.

Assay: qHTS Assay for Lipid Storage Modulators in Drosophila S3 Cells;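 for cell number change: cells counted by Cell Tracker Red CMTPX staining in the red channel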
Conditions: BODIPY lipid droplet fluorescence, 18-24 h; for cell number change: measured here: cell count max response, cells fed with added oleic acid
Outline: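 Drosophila S3 cells loaded with oleic acid (400 uM, as added) and compounds at several concentrations; lipid droplets imaged by 488-nm laser-scanning cytometry, 500–530 nm intensity and object ratio to cell channel. Percent activity normalized to 20 uM Triacsin C.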

[1] = measured here: cell number channel AC50, cells fed with added oleic acid
[2] = measured here: lipid fluorescence (Fed channel) AC50, cells fed with added oleic acid

## Cc1nnc(SCc2cccc(CSc3nnc(C)s3)c2)s1
  cell number change: 32.9%
[1]
  AC50: 16.4 µM [rising, single point]

## Cc1ccc(CS(=O)Cc2ccc(C(=O)NCCc3ccccc3)o2)cc1 (stereo unspecified)
[2]
  AC50: 29.1 µM [falling, single point]

## CCN1CCN(C(=O)c2cc3c(s2)-c2ccccc2S(=O)(=O)C3)CC1
  cell number change: 42%
[1]
  AC50: 8.2 µM [rising, single point]

## Nc1ccc2nc3c(=O)[nH]c(=S)[nH]c3nc2c1
  cell number change: -90.6%
[2]
  AC50: 29.1 µM [falling, single point]

## CC(C)CC1NC(=O)N(CC(=O)Nc2cccc(Br)c2)C1=O (stereo unspecified)
  cell number change: -9.94%
[2]
  AC50: 0.461 µM [falling, full curve, poor fit]

## COc1cc(C(=O)Nc2ccc3c(c2)C(=O)c2ccccc2C3=O)cc(OC)c1OC
  cell number change: 8.83%
[2]
  AC50: 0.82 µM [rising, full curve, poor fit]

## COc1ccc(-c2c(C)c3ccc(O)cc3oc2=O)cc1OC
  cell number change: -1.19%

## NC(=O)c1nn(CC(=O)Nc2cccc(S(=O)(=O)N3CCCCCC3)c2)c(=O)c2ccccc12
  cell number change: -7.7%

## CCC(C(=O)NCc1ccco1)N(Cc1cccs1)C(=O)CNS(=O)(=O)c1ccccc1 (stereo unspecified)
  cell number change: 1.18%

## O=C(COC(=O)[C@@H]1CC(O)CN1S(=O)(=O)c1ccccc1[N+](=O)[O-])c1ccccc1 (stereo partly specified)
  cell number change: 5.55%

## CCOc1ccc(NC(=S)N2CCCCCC2)cc1
  cell number change: 0.566%
[2]
  AC50: 0.00411 µM [rising, full curve, poor fit]

## O=C(NC(=S)Nc1ncc(Br)cc1Br)c1cncc(Br)c1
[1]
  AC50: 0.326 µM [rising, full curve, poor fit]
[2]
  AC50: 20.6 µM [rising, partial curve, poor fit]

## CC(C)(C)C1CCC2(CC1)C(C#N)=C(SCC(=O)Nc1ccccc1)NC(=O)C2C#N (stereo unspecified)
  cell number change: 8.69%
[2]
  AC50: 20.6 µM [rising, partial curve, poor fit]

## O=[N+]([O-])c1cc(S(=O)(=O)NCCCN2CCOCC2)ccc1Cl
  cell number change: 44.5%
[1]
  AC50: 29.1 µM [rising, single point]
[2]
  AC50: 0.00517 µM [falling, full curve, poor fit]

## COc1cc(OC)cc(C(=O)N2CCC(N3CCN(c4ccccc4OC)CC3)CC2)c1
[1]
  AC50: 0.58 µM [rising, full curve]
[2]
  AC50: 2.06 µM [rising, single point]

## Cc1ccc(C)c(NS(=O)(=O)c2cc(C(=O)NCCSC3CCCCC3)ccc2C)c1
  cell number change: -0.153%
[2]
  AC50: 1.84 µM [falling, partial curve, poor fit]

## O=C(COc1ccc(/C=N/NC(=O)c2ccccc2O)cc1)Nc1ccc([N+](=O)[O-])cc1
  cell number change: -43.7%
[1]
  AC50: 3.66 µM [falling, full curve]
[2]
  AC50: 0.116 µM [rising, partial curve, poor fit]

## Cn1c(CNC(=O)CCNC(=O)c2cccc(F)c2)cc(=O)n(C)c1=O
  cell number change: -9.91%

## O=C(NC(=S)N1CCN(c2ccc([N+](=O)[O-])cc2)CC1)c1ccccc1
  cell number change: 0.273%
[2]
  AC50: 1.64 µM [falling, partial curve]

## CCOc1ccc(N(CC(=O)NC2CCCCC2)S(=O)(=O)c2ccc(C)cc2)cc1
  cell number change: 5.56%
[2]
  AC50: 29.1 µM [rising, single point]

## Cc1nc2ccccn2c1C(=O)N/N=C/c1ccc([N+](=O)[O-])cc1
  cell number change: 18.2%

## N#C/C(=C/c1ccccc1)C(=O)OCC(=O)Nc1ccccc1[N+](=O)[O-]
  cell number change: 8.3%
[2]
  AC50: 32.6 µM [rising, single point]

## Cc1ccc(Cn2c(=N)c(C(=O)NC3CCCC3)cc3c(=O)n4ccccc4nc32)cc1
  cell number change: -5.67%

## Cc1c(C)n(C(=O)CN2CCC(C(N)=O)CC2)c2ccccc12
  cell number change: -11.3%
[2]
  AC50: 1.16 µM [falling, full curve]

## CCOc1cccc(NC(=O)C(Cc2cccs2)c2nn[nH]n2)c1 (stereo unspecified)
  cell number change: 6.33%
[2]
  AC50: 16.4 µM [rising, single point]

## N#C/C(C(=O)NCc1ccco1)=C1/SC=C(c2ccccc2)N1c1ccccc1
  cell number change: 5.94%
[2]
  AC50: 2.31 µM [rising, full curve]

## COc1ccc(S(=O)(=O)Cc2ccc(C(=O)N3CCC(C(N)=O)CC3)o2)cc1
  cell number change: 42%
[1]
  AC50: 18.4 µM [rising, single point]
[2]
  AC50: 0.103 µM [falling, full curve, poor fit]

## CN(C)c1nc(SCCOC(=O)Nc2ccccc2)nc(N(C)C)n1
  cell number change: -23.4%

## C=CCc1cccc(CNc2nc3ccccc3n2CCN2CCOCC2)c1O
[1]
  AC50: 2.59 µM [rising, partial curve]
[2]
  AC50: 2.31 µM [rising, partial curve]

## Cc1nnc2n(Cc3ccccc3)c(=O)c3c4c(sc3n12)COC(C(C)C)C4 (stereo unspecified)
  cell number change: -10.8%
[2]
  AC50: 0.00461 µM [rising, full curve, poor fit]

## COc1cc(NC(=O)CN2CCCCC2C)c(C)cc1[N+](=O)[O-] (stereo unspecified)
  cell number change: -23.7%
[1]
  AC50: 2.91 µM [falling, partial curve, poor fit]

## CCCCn1c(N)c(N(CC(C)C)C(=O)c2ccco2)c(=O)[nH]c1=O
  cell number change: -4.82%

## O=C(COC(=O)c1ccccc1-n1cnnn1)c1ccc(Br)cc1
  cell number change: 22.9%
[2]
  AC50: 32.6 µM [rising, single point]

## Cn1nnc2c(N3CCCCC3)nccc21
  cell number change: 0.641%
[2]
  AC50: 4.61 µM [rising, single point]

## CC(C)(C)c1ccc(OCC(=O)NNC(=O)CCc2ccccc2)cc1
  cell number change: 154%

## Cc1ccccc1N(C(=O)c1cccs1)c1nc2ccccc2s1
[2]
  AC50: 6.51 µM [rising, single point]

## O=C(c1ccc2nsnc2c1)N1CCN(c2ccc([N+](=O)[O-])cc2)CC1
  cell number change: 29%
[2]
  AC50: 18.4 µM [rising, partial curve]

## O=S(=O)(c1ccc2c(c1)OCCO2)N1CCC(n2cnc3cc(F)ccc32)CC1
  cell number change: -13.9%

## CCN1CCN(C(=O)Cn2ncc3c2-c2ccccc2OC3)CC1
  cell number change: 11.9%
[2]
  AC50: 4.61 µM [rising, single point]

## Cc1ccsc1/C=N/Nc1ncc(Cl)cc1Cl
  cell number change: 56.8%
[1]
  AC50: 5.8 µM [rising, partial curve]
[2]
  AC50: 2.06 µM [rising, partial curve]
